# Laboratory results published in the supplement of paper PMC8728848.
# The list shows a part of the results.
# B1: FGF1 (Homo sapiens), P05230 (protein)
# chain: MAEGEITTFTALTEKFNLPPGNYKKPKLLYSNGGHFLRILPDGTVDGTRDRSDQHIQLQLSAESVGEVYIKSTETGQYLAMTDGLLYGSQTPNEECLFLERLEENHYNTYISKHAEKNWFVGLKKNGSCKRGPRTHYGQAILFLPLPASSED
# Experiments:
# Test in all cases: glycan array binding signal (z-score within array); higher = stronger binding
# Conditions in all cases: glycan notation: IUPAC condensed, linker removed
# Glc(b1-4)Glc = biological target: Glc(b1-4)Glc
# In short: (§1)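 Arrays were curated from the Consortium for Functional Glycomics database, 3228 in total, and kept only where the protein sequence was available. Binding is expressed as a within-array Z-score. This score was averaged across arrays of the same protein sequence at different concentrations or buffers and across linkers, and negative values can be read as non-binding.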
# Glc(b1-6)Glc = biological target: Glc(b1-6)Glc
# In short: as §1
# GlcA(b1-3)Gal = biological target: GlcA(b1-3)Gal
# In short: as §1
# GlcA(b1-3)GlcNAc = biological target: GlcA(b1-3)GlcNAc
# In short: as §1
# GlcA(b1-6)Gal = biological target: GlcA(b1-6)Gal
# In short: as §1
# [1] = biological target: GlcA3S(b1-3)Gal(b1-4)GlcNAc(b1-2)Man
# In short: as §1
# [2] = biological target: GlcA3S(b1-3)Gal(b1-4)GlcNAc(b1-3)Gal(b1-4)Glc
# In short: as §1
# [3] = biological target: GlcNAc(a1-3)Gal(b1-4)GlcNAc
# In short: as §1
# [4] = biological target: GlcNAc(a1-4)Gal(b1-3)GlcNAc
# In short: as §1
# [5] = biological target: GlcNAc(a1-4)Gal(b1-4)GalNAc
# In short: as §1
# [6] = biological target: GlcNAc(a1-4)Gal(b1-4)GlcNAc
# In short: as §1
# [7] = biological target: GlcNAc(a1-4)Gal(b1-4)GlcNAc(b1-3)Gal(b1-4)Glc
# In short: as §1
# [8] = biological target: GlcNAc(a1-4)Gal(b1-4)GlcNAc(b1-3)Gal(b1-4)GlcNAc
# In short: as §1
# [9] = biological target: GlcNAc(a1-4)Gal(b1-4)GlcNAc(b1-3)Gal(b1-4)GlcNAc(b1-3)Gal(b1-4)GlcNAc
# In short: as §1
# [10] = biological target: GlcNAc(a1-4)Gal(b1-4)GlcNAc(b1-3)Gal(b1-4)[Fuc(a1-3)]GlcNAc(b1-3)Gal(b1-4)[Fuc(a1-3)]GlcNAc
# In short: as §1
# [11] = biological target: GlcNAc(a1-6)Gal(b1-4)GlcNAc
# In short: as §1
# [12] = biological target: GlcNAc(b1-2)Gal(b1-3)GalNAc
# In short: as §1
# [13] = biological target: GlcNAc(b1-2)Man(a1-3)[GlcNAc(b1-2)Man(a1-6)]Man(b1-4)GlcNAc(b1-4)GlcNAc
# In short: as §1
# [14] = biological target: GlcNAc(b1-2)Man(a1-3)[GlcNAc(b1-2)Man(a1-6)]Man(b1-4)GlcNAc(b1-4)[Fuc(a1-6)]GlcNAc
# In short: as §1
# [15] = biological target: GlcNAc(b1-2)Man(a1-3)[GlcNAc(b1-4)][GlcNAc(b1-2)Man(a1-6)]Man(b1-4)GlcNAc(b1-4)GlcNAc
# In short: as §1
# [16] = biological target: GlcNAc(b1-2)Man(a1-3)[GlcNAc(b1-4)][GlcNAc(b1-2)Man(a1-6)]Man(b1-4)GlcNAc(b1-4)[Fuc(a1-6)]GlcNAc
# In short: as §1
# [17] = biological target: GlcNAc(b1-2)[GlcNAc(b1-4)]Man(a1-3)[GlcNAc(b1-2)Man(a1-6)]Man(b1-4)GlcNAc(b1-4)GlcNAc
# In short: as §1
# [18] = biological target: GlcNAc(b1-2)[GlcNAc(b1-4)]Man(a1-3)[GlcNAc(b1-4)][GlcNAc(b1-2)Man(a1-6)]Man(b1-4)GlcNAc(b1-4)GlcNAc
# In short: as §1
# [19] = biological target: GlcNAc(b1-2)[GlcNAc(b1-4)]Man(a1-3)[GlcNAc(b1-4)][GlcNAc(b1-2)[GlcNAc(b1-6)]Man(a1-6)]Man(b1-4)GlcNAc(b1-4)GlcNAc
# In short: as §1
# [20] = biological target: GlcNAc(b1-2)[GlcNAc(b1-4)]Man(a1-3)[GlcNAc(b1-4)][GlcNAc(b1-2)[GlcNAc(b1-6)]Man(a1-6)]Man(b1-4)GlcNAc(b1-4)[Fuc(a1-6)]GlcNAc
# In short: as §1
# [21] = biological target: GlcNAc(b1-2)[GlcNAc(b1-6)]Man(a1-6)[GlcNAc(b1-2)Man(a1-3)]Man(b1-4)GlcNAc(b1-4)GlcNAc
# In short: as §1
# [22] = biological target: GlcNAc(b1-2)[GlcNAc(b1-6)]Man(a1-6)[GlcNAc(b1-2)Man(a1-3)]Man(b1-4)GlcNAc(b1-4)[Fuc(a1-6)]GlcNAc
# In short: as §1
# [23] = biological target: GlcNAc(b1-2)[GlcNAc(b1-6)]Man(a1-6)[GlcNAc(b1-4)][GlcNAc(b1-2)Man(a1-3)]Man(b1-4)GlcNAc(b1-4)GlcNAc
# In short: as §1
# GlcNAc(b1-3)Fuc = biological target: GlcNAc(b1-3)Fuc
# In short: as §1
# GlcNAc(b1-3)Gal = biological target: GlcNAc(b1-3)Gal
# In short: as §1
# [24] = biological target: GlcNAc(b1-3)Gal(b1-3)GalNAc
# In short: as §1
# GlcNAc(b1-3)Gal(b1-4)Glc = biological target: GlcNAc(b1-3)Gal(b1-4)Glc
# In short: as §1
# [25] = biological target: GlcNAc(b1-3)Gal(b1-4)GlcNAc
# In short: as §1
# [26] = biological target: GlcNAc(b1-3)Gal(b1-4)GlcNAc(b1-2)Man(a1-3)[GlcNAc(b1-3)Gal(b1-4)GlcNAc(b1-2)Man(a1-6)]Man(b1-4)GlcNAc(b1-4)GlcNAc
# In short: as §1
# [27] = biological target: GlcNAc(b1-3)Gal(b1-4)GlcNAc(b1-2)Man(a1-3)[GlcNAc(b1-3)Gal(b1-4)GlcNAc(b1-2)Man(a1-6)]Man(b1-4)GlcNAc(b1-4)[Fuc(a1-6)]GlcNAc
# In short: as §1
# [28] = biological target: GlcNAc(b1-3)Gal(b1-4)GlcNAc(b1-2)[GlcNAc(b1-3)Gal(b1-4)GlcNAc(b1-6)]Man(a1-6)[GlcNAc(b1-3)Gal(b1-4)GlcNAc(b1-2)Man(a1-3)]Man(b1-4)GlcNAc(b1-4)GlcNAc
# In short: as §1
# [29] = biological target: GlcNAc(b1-3)Gal(b1-4)GlcNAc(b1-3)Gal(b1-4)GlcNAc
# In short: as §1
# [30] = biological target: GlcNAc(b1-3)Gal(b1-4)GlcNAc(b1-3)Gal(b1-4)GlcNAc(b1-2)Man(a1-3)[GlcNAc(b1-3)Gal(b1-4)GlcNAc(b1-3)Gal(b1-4)GlcNAc(b1-2)Man(a1-6)]Man(b1-4)GlcNAc(b1-4)GlcNAc
# In short: as §1
# [31] = biological target: GlcNAc(b1-3)Gal(b1-4)GlcNAc(b1-3)Gal(b1-4)GlcNAc(b1-2)Man(a1-3)[GlcNAc(b1-3)Gal(b1-4)GlcNAc(b1-3)Gal(b1-4)GlcNAc(b1-2)Man(a1-6)]Man(b1-4)GlcNAc(b1-4)[Fuc(a1-6)]GlcNAc
# In short: as §1
# [32] = biological target: GlcNAc(b1-3)Gal(b1-4)GlcNAc(b1-3)Gal(b1-4)GlcNAc(b1-2)[GlcNAc(b1-3)Gal(b1-4)GlcNAc(b1-3)Gal(b1-4)GlcNAc(b1-6)]Man(a1-6)[GlcNAc(b1-3)Gal(b1-4)GlcNAc(b1-3)Gal(b1-4)GlcNAc(b1-2)Man(a1-3)]Man(b1-4)GlcNAc(b1-4)[Fuc(a1-6)]GlcNAc
# In short: as §1
# [33] = biological target: GlcNAc(b1-3)Gal(b1-4)GlcNAc(b1-3)Gal(b1-4)GlcNAc(b1-3)Gal(b1-4)GlcNAc(b1-2)Man(a1-3)[GlcNAc(b1-3)Gal(b1-4)GlcNAc(b1-3)Gal(b1-4)GlcNAc(b1-3)Gal(b1-4)GlcNAc(b1-2)Man(a1-6)]Man(b1-4)GlcNAc(b1-4)GlcNAc
# In short: as §1
# [34] = biological target: GlcNAc(b1-3)Gal(b1-4)GlcNAc(b1-3)Gal(b1-4)GlcNAc(b1-3)Gal(b1-4)GlcNAc(b1-2)Man(a1-3)[GlcNAc(b1-3)Gal(b1-4)GlcNAc(b1-3)Gal(b1-4)GlcNAc(b1-3)Gal(b1-4)GlcNAc(b1-2)Man(a1-6)]Man(b1-4)GlcNAc(b1-4)[Fuc(a1-6)]GlcNAc
# In short: as §1
# [35] = biological target: GlcNAc(b1-3)Gal(b1-4)GlcNAc(b1-3)Gal(b1-4)GlcNAc(b1-3)Gal(b1-4)GlcNAc(b1-2)[GlcNAc(b1-3)Gal(b1-4)GlcNAc(b1-3)Gal(b1-4)GlcNAc(b1-3)Gal(b1-4)GlcNAc(b1-6)]Man(a1-6)[GlcNAc(b1-3)Gal(b1-4)GlcNAc(b1-3)Gal(b1-4)GlcNAc(b1-3)Gal(b1-4)GlcNAc(b1-2)Man(a1-3)]Man(b1-4)GlcNAc(b1-4)[Fuc(a1-6)]GlcNAc
# In short: as §1
# [36] = biological target: GlcNAc(b1-3)Gal(b1-4)GlcNAc(b1-3)Gal(b1-4)GlcNAc(b1-3)Gal(b1-4)GlcNAc(b1-3)Gal(b1-4)GlcNAc(b1-2)Man(a1-3)[GlcNAc(b1-3)Gal(b1-4)GlcNAc(b1-3)Gal(b1-4)GlcNAc(b1-3)Gal(b1-4)GlcNAc(b1-3)Gal(b1-4)GlcNAc(b1-2)Man(a1-6)]Man(b1-4)GlcNAc(b1-4)GlcNAc
# In short: as §1
# [37] = biological target: GlcNAc(b1-3)Gal(b1-4)GlcNAc(b1-3)Gal(b1-4)GlcNAc(b1-3)Gal(b1-4)GlcNAc(b1-3)Gal(b1-4)GlcNAc(b1-2)Man(a1-3)[GlcNAc(b1-3)Gal(b1-4)GlcNAc(b1-3)Gal(b1-4)GlcNAc(b1-3)Gal(b1-4)GlcNAc(b1-3)Gal(b1-4)GlcNAc(b1-2)Man(a1-6)]Man(b1-4)GlcNAc(b1-4)[Fuc(a1-6)]GlcNAc
# In short: as §1
binder,measurement,setting,value
B1,glycan array binding signal (z-score),Glc(b1-4)Glc,0.606
same,glycan array binding signal (z-score),Glc(b1-6)Glc,0.554
same,glycan array binding signal (z-score),GlcA(b1-3)Gal,0.241
same,glycan array binding signal (z-score),GlcA(b1-3)GlcNAc,0.105
same,glycan array binding signal (z-score),GlcA(b1-6)Gal,1.29
same,glycan array binding signal (z-score),[1],-0.693
same,glycan array binding signal (z-score),[2],-0.775
same,glycan array binding signal (z-score),[3],-0.427
same,glycan array binding signal (z-score),[4],-0.431
same,glycan array binding signal (z-score),[5],0.705
same,glycan array binding signal (z-score),[6],-0.259
same,glycan array binding signal (z-score),[7],-0.392
same,glycan array binding signal (z-score),[8],-0.122
same,glycan array binding signal (z-score),[9],-0.907
same,glycan array binding signal (z-score),[10],1.24
same,glycan array binding signal (z-score),[11],-0.134
same,glycan array binding signal (z-score),[12],0.748
same,glycan array binding signal (z-score),[13],-0.063
same,glycan array binding signal (z-score),[14],0.043
same,glycan array binding signal (z-score),[15],-0.529
same,glycan array binding signal (z-score),[16],-0.72
same,glycan array binding signal (z-score),[17],-0.865
same,glycan array binding signal (z-score),[18],-0.851
same,glycan array binding signal (z-score),[19],-0.751
same,glycan array binding signal (z-score),[20],-0.879
same,glycan array binding signal (z-score),[21],-0.943
same,glycan array binding signal (z-score),[22],0.145
same,glycan array binding signal (z-score),[23],-0.832
same,glycan array binding signal (z-score),GlcNAc(b1-3)Fuc,0.25
same,glycan array binding signal (z-score),GlcNAc(b1-3)Gal,-0.782
same,glycan array binding signal (z-score),[24],-0.627
same,glycan array binding signal (z-score),GlcNAc(b1-3)Gal(b1-4)Glc,-0.813
same,glycan array binding signal (z-score),[25],-0.815
same,glycan array binding signal (z-score),[26],-0.363
same,glycan array binding signal (z-score),[27],0.998
same,glycan array binding signal (z-score),[28],1.91
same,glycan array binding signal (z-score),[29],-1.16
same,glycan array binding signal (z-score),[30],0.296
same,glycan array binding signal (z-score),[31],-0.417
same,glycan array binding signal (z-score),[32],0.236
same,glycan array binding signal (z-score),[33],-0.668
same,glycan array binding signal (z-score),[34],1.12
same,glycan array binding signal (z-score),[35],-0.625
same,glycan array binding signal (z-score),[36],-0.577
same,glycan array binding signal (z-score),[37],-0.504

# Two entries picked at random from those above, as already listed:
binder,measurement,setting,value
B1,glycan array binding signal (z-score),[10],1.24
same,glycan array binding signal (z-score),GlcA(b1-3)Gal,0.241
